Experimental findings from PubChem BioAssay AID330 (DTP/NCI, 2004) are described below.

The assay concerns P388 leukemia ip, CD2F1 mice, survival T/C. Nature of the assay: NCI In Vivo Anticancer Drug Screen. Data for tumor model P388 Leukemia (intraperitoneal) in CD2F1 (CDF1) mice. To be noted: T/C endpoint: median survival time, higher T/C = longer survival.
Where [1] appears, read: dose: 50.0 mg/kg/injection, schedule: Q01DX005 (ip), vehicle: saline with Tween-80.
The mark [2] stands for this setting: dose: 200.0 mg/kg/injection, schedule: Q01DX005 (ip), vehicle: saline with Tween-80.
Setting [3] is: dose: 200.0 mg/kg/injection, schedule: Q01DX009 (ip), vehicle: Klucel (hydroxypropylcellulose) (HPC).
Where [4] appears, read: dose: 200.0 mg/kg/injection, schedule: Q01DX005 (ip), vehicle: Klucel (hydroxypropylcellulose) (HPC).
The mark [5] stands for this setting: dose: 100.0 mg/kg/injection, schedule: Q01DX009 (ip), vehicle: saline with Tween-80.
Where [6] appears, read: dose: 25.0 mg/kg/injection, schedule: Q01DX005 (ip), vehicle: Klucel (hydroxypropylcellulose) (HPC).
[7] abbreviates: dose: 50.0 mg/kg/injection, schedule: Q01DX005 (ip), vehicle: Klucel (hydroxypropylcellulose) (HPC).
Where [8] appears, read: dose: 100.0 mg/kg/injection, schedule: Q01DX005 (ip), vehicle: Klucel (hydroxypropylcellulose) (HPC).
Setting [9] is: dose: 25.0 mg/kg/injection, schedule: Q01DX009 (ip), vehicle: saline with Tween-80.
[10] abbreviates: dose: 400.0 mg/kg/injection, schedule: Q04DX003 (ip), vehicle: saline with Tween-80.

The list does not hold the whole screen: it gathers tests that were run many times, whatever their T/C, doses with no T/C, and many T/C values between a quarter and a half above the control. Further doses and runs are listed elsewhere. T/C is the treated group as % of the vehicle group. Some doses have a count of surviving animals in place of a T/C: the source holds a T/C of zero for them, seemingly a mark for toxic or unscored doses. Some doses without a T/C left all or most animals alive at the check, yet need not have been tolerated: survival well below the control is almost never listed, so the zero probably covers shortened survival too. Survivors were counted at the toxicity check, usually on the fifth day, unless a day is given; later deaths do not show. Schedule codes are those of the source, read here as Q, the interval in days (D) or hours (H), X, the number of doses. Where survival is the endpoint, the PubChem record calls one and a half times the control and up active, and a quarter to a half above the control has no call in these data; cut-offs in other NCI protocols can differ. Some T/C values are followed by the survivors on the day toxicity was checked, most often the fifth; where none is given, no animal had died by that day. Some entries hold several experiments; their values stand side by side, smallest first.

On to `COC(=O)C(C)NP(=O)(N1CC1)N1CC1` (configuration not stated), for which the T/C (dose: 3.75 mg/kg/injection, schedule: Q01DX005 (ip), vehicle: saline with Tween-80) is 141 % of control; the T/C (dose: 3.75 mg/kg/injection, schedule: Q01DX005 (ip), vehicle: saline) was 144 % of control; the T/C (dose: 7.5 mg/kg/injection, schedule: Q01DX005 (ip), vehicle: saline with Tween-80) was 128 % of control. Further, the survivor count is listed as 2 of 6 (dose: 60.0 mg/kg/injection, schedule: Q01DX005 (ip), vehicle: saline); 0 of 6 (dose: 120.0 mg/kg/injection, schedule: Q01DX005 (ip), vehicle: saline); 0 of 6 (dose: 240.0 mg/kg/injection, schedule: Q01DX005 (ip), vehicle: saline).

In the case of `CCN(CC)CCOC(=O)c1ccc(N=NC2Sc3nc4ccccc4n3C2=O)cc1` (configuration not stated), the survivor count runs as follows: (dose: 60.0 mg/kg/injection, schedule: Q01DX005 (ip), vehicle: Klucel (hydroxypropylcellulose) (HPC)) 6 of 6; (dose: 120.0 mg/kg/injection, schedule: Q01DX005 (ip), vehicle: Klucel (hydroxypropylcellulose) (HPC)) 3 of 6; (dose: 240.0 mg/kg/injection, schedule: Q01DX005 (ip), vehicle: Klucel (hydroxypropylcellulose) (HPC)) 0 of 6.

Regarding `N=C(N)c1ccc2nc(/C=C\c3nc4ccc(C(=N)N)cc4[nH]3)[nH]c2c1`, the T/C (dose: 400.0 mg/kg/injection, schedule: Q04DX002 (ip), vehicle: saline) was 125 % of control.

On to `COc1cc(/C=N/N2CC(=O)N(c3ccccc3)CC2=O)cc(OC)c1`, for which the survivor count runs as follows: under setting [1], 6 of 6; (dose: 100.0 mg/kg/injection, schedule: Q01DX005 (ip), vehicle: saline with Tween-80) 6 of 6; under setting [2], 6 of 6.

Regarding `COC1OC(CO)C(O)C(NC(=O)N(C)N=O)C1O` (configuration not stated), the T/C (dose: 50.0 mg/kg/injection, schedule: Q01DX009 (ip), vehicle: saline) is 145 and 147 % of control.

Turning to `O=C(OCCN1CCN(CCCN2c3ccccc3Sc3ccc(C(F)(F)F)cc32)CC1)C12CC3CC(CC(C3)C1)C2`, the survivor count was 6 of 6 (dose: 50.0 mg/kg/injection, schedule: Q01DX009 (ip), vehicle: Klucel (hydroxypropylcellulose) (HPC)) and 6 of 6 under setting [3].

`N#C/C(=C/N)C(N)=O`: the survivor count (dose: 400.0 mg/kg/injection, schedule: Q01DX009 (ip), vehicle: saline with Tween-80) is reported as 5 of 6.

As for `O=[N+]([O-])c1ccccc1N=Nc1c(-c2ccccc2)nn(C(=S)N2CCOCC2)c1-c1ccccc1`, the survivor count was 6 of 6 (dose: 12.5 mg/kg/injection, schedule: Q01DX005 (ip), vehicle: saline with Tween-80); 6 of 6 (dose: 25.0 mg/kg/injection, schedule: Q01DX005 (ip), vehicle: saline with Tween-80); 6 of 6 under setting [1].

In the case of `Nc1ccc2nc3ccc(=O)cc-3n(-c3ccccc3)c2c1`, the T/C is 131 % of control (dose: 1.0 mg/kg/injection, schedule: Q01DX009 (ip), vehicle: saline); 130 and 144 % of control [5 of 6 alive] (dose: 2.5 mg/kg/injection, schedule: Q01DX009 (ip), vehicle: saline); 139 and 145 % of control (dose: 5.0 mg/kg/injection, schedule: Q01DX009 (ip), vehicle: saline); 140 % of control (dose: 10.0 mg/kg/injection, schedule: Q01DX009 (ip), vehicle: saline).

Take `CCOC(=O)C1=C(C(=O)c2ccc(C)cc2)C(c2ccc(Cl)cc2Cl)C(C(=O)c2ccc(C)cc2)=C(C(=O)OCC)N1`: the survivor count (dose: 240.0 mg/kg/injection, schedule: Q01DX005 (ip), vehicle: saline with Tween-80) is 5 of 6.

Consider `CCCCN1C(=O)/C(=C/c2ccccc2OC)SC1=S`, for which the survivor count under setting [4] was 5 of 5.

Turning to `Cc1ccc(S(=O)(=O)NC(=O)Nc2sc(=S)c3c(c2C#N)CCCC3)cc1`, the survivor count under setting [2] is 0 of 5.

On to `Cc1c(C(=N)C(C#N)C#N)c(=N)oc2c1ccc1ccccc12`, for which the survivor count under setting [5] is given as 4 of 6.

Turning to `N#CC1=C(C#N)C(=O)c2ccccc2C1=O`, the survivor count under setting [5] is 3 of 6.

For the molecule `COc1ccc(/C=C/C(=O)C(CN(C)C)CN(C)C)cc1OC`, the survivor count (dose: 6.25 mg/kg/injection, schedule: Q01DX005 (ip), vehicle: Klucel (hydroxypropylcellulose) (HPC)) is 2 of 6; the survivor count (dose: 12.5 mg/kg/injection, schedule: Q01DX005 (ip), vehicle: Klucel (hydroxypropylcellulose) (HPC)) was 0 of 6; the survivor count under setting [6] is recorded as 0 of 6; the survivor count under setting [7] is on record as 0 of 6; the survivor count under setting [8] was 0 of 6; the survivor count under setting [4] is 0 of 6.

Regarding `O=C1c2ccccc2C(=O)c2c1nc1sccn21`, the survivor count reads like this: under setting [6], 5 of 5; under setting [7], 5 of 5; under setting [8], 2 of 5; under setting [4], 0 of 5.

In the case of `N=C(N)SCc1ccc([N+](=O)[O-])cc1`, the survivor count runs as follows: (dose: 100.0 mg/kg/injection, schedule: Q01DX009 (ip), vehicle: Klucel (hydroxypropylcellulose) (HPC)) 5 of 6; under setting [3], 0 of 6.

For `COc1cc(N(CCCl)CCCl)c(OC)cc1C=Nc1cccc(Br)c1`, the T/C was 129 % of control (dose: 6.25 mg/kg/injection, schedule: Q01DX009 (ip), vehicle: suspension in saline) and 141 % of control (dose: 12.5 mg/kg/injection, schedule: Q01DX009 (ip), vehicle: saline).

In the case of `CCOc1ccc(C[Se][Se]Cc2ccc(OCC)cc2)cc1`, the survivor count under setting [3] is 0 of 6.

With `CCCCCCCCCCCCCCCC(=O)N(CCCN(C)C)C(C)(C)CCC(C)(C)N(CCCN(C)C)C(=O)CCCCCCCCCCCCCCC`, the survivor count by setting is: (dose: 100.0 mg/kg/injection, schedule: Q01DX009 (ip), vehicle: other) 0 of 6; (dose: 200.0 mg/kg/injection, schedule: Q01DX009 (ip), vehicle: other) 0 of 6; (dose: 400.0 mg/kg/injection, schedule: Q01DX009 (ip), vehicle: other) 0 of 6.

As to `CC1(C)OC2OC(COC(=O)c3ccccc3)C(=O)C2O1` (configuration not stated), under setting [9], the survivor count is given as 6 of 6.

With `CCCCCC/C=C/C1CC(=O)OC1=O` (configuration not stated), the survivor count (dose: 200.0 mg/kg/injection, schedule: Q04DX003 (ip), vehicle: saline with Tween-80) was 3 of 6 and the survivor count under setting [10] is listed as 0 of 6.

`CCCCCCCCCCCC[C@@H](O)[C@H]1CC[C@H]([C@H](O)CCCC[C@H](O)CCCCC[C@@H](O)CC2=C[C@H](C)OC2=O)O1`: the survivor count (dose: 3.0 mg/kg/injection, schedule: Q01DX009 (ip), vehicle: other) is 3 of 4 and the survivor count (dose: 6.0 mg/kg/injection, schedule: Q01DX009 (ip), vehicle: other) is on record as 0 of 4.

Take `C=C1C(=O)OC2/C=C(\C)CC/C=C(\C)CC(OC(=O)/C(=C/C)CO)C12` (configuration not stated): the survivor count is reported as 0 of 6 (dose: 200.0 mg/kg/injection, schedule: Q01DX001 (ip), vehicle: Klucel (hydroxypropylcellulose) (HPC)) and 0 of 6 (dose: 400.0 mg/kg/injection, schedule: Q01DX001 (ip), vehicle: Klucel (hydroxypropylcellulose) (HPC)).

As to `CC1=Nc2ccccc2N(C)/C1=C/C1=CC(=O)c2ccccc2C1=O`, under setting [10], the survivor count is 1 of 6.

As to `CCC1CN2CCc3cc(OC)c(OC)cc3C2CC1(O)C#N` (configuration not stated), the survivor count (dose: 400.0 mg/kg/injection, schedule: Q01DX009 (ip), vehicle: Klucel (hydroxypropylcellulose) (HPC)) was 0 of 6.

Consider `Cc1cccc(N(CCOS(C)(=O)=O)CCOS(C)(=O)=O)c1`, for which the T/C was 125 % of control (dose: 3.12 mg/kg/injection, schedule: Q01DX009 (ip), vehicle: saline) and 141 % of control (dose: 6.25 mg/kg/injection, schedule: Q01DX009 (ip), vehicle: saline). Also, the survivor count is reported as 5 of 6 under setting [9]; 0 of 6 (dose: 50.0 mg/kg/injection, schedule: Q01DX009 (ip), vehicle: saline with Tween-80); 0 of 6 under setting [5]; 0 of 6 (dose: 200.0 mg/kg/injection, schedule: Q01DX009 (ip), vehicle: saline with Tween-80).
